The target in one assay is T1, 3X Flag-Srebp2 (UniProt Q12772).
T1 sequence: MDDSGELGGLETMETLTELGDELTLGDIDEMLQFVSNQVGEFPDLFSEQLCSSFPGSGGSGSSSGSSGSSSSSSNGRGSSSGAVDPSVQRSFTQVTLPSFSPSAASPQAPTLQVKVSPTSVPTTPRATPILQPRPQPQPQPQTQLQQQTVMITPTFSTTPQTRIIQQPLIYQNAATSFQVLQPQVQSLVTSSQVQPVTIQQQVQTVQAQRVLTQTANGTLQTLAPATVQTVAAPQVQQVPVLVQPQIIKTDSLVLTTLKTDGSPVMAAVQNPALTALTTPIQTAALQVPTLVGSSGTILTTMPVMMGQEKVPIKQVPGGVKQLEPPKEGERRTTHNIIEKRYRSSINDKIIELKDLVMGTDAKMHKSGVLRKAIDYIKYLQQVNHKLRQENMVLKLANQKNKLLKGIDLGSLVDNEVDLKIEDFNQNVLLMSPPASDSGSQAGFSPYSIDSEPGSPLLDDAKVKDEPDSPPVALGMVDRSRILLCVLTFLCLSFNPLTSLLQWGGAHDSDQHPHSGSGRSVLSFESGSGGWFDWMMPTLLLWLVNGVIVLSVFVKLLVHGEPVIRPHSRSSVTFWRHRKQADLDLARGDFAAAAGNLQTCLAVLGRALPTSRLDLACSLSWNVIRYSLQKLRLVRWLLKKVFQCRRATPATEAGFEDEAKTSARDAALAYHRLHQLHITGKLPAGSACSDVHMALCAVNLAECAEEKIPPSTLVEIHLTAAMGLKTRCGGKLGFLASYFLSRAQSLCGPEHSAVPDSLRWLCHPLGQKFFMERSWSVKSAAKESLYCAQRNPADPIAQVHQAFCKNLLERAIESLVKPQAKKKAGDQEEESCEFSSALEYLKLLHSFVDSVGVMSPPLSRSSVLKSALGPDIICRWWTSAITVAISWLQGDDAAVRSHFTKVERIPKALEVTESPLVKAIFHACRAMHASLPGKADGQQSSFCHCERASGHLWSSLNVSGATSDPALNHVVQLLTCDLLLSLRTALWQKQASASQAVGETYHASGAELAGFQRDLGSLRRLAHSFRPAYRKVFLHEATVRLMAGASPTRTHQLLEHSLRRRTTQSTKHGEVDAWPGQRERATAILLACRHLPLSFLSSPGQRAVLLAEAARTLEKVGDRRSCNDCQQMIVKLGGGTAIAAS
The assay can be described thus: co-IP; differentiated oligodendrocytes with ectopic Flag-Srebp2, cross-linked with 1% formaldehyde, NP-40 buffer; anti-Flag M2 magnetic beads for 4 hr; immunoblot of Qki-5; denatured (boiled) anti-FLAG beads as control.

For assay [1], the target named is T2, Srebp2 (sterol regulatory element-binding protein 2) (mouse (endogenous in oligodendrocytes differentiated from mouse NSCs)) (UniProt Q3U1N2).
T2 sequence: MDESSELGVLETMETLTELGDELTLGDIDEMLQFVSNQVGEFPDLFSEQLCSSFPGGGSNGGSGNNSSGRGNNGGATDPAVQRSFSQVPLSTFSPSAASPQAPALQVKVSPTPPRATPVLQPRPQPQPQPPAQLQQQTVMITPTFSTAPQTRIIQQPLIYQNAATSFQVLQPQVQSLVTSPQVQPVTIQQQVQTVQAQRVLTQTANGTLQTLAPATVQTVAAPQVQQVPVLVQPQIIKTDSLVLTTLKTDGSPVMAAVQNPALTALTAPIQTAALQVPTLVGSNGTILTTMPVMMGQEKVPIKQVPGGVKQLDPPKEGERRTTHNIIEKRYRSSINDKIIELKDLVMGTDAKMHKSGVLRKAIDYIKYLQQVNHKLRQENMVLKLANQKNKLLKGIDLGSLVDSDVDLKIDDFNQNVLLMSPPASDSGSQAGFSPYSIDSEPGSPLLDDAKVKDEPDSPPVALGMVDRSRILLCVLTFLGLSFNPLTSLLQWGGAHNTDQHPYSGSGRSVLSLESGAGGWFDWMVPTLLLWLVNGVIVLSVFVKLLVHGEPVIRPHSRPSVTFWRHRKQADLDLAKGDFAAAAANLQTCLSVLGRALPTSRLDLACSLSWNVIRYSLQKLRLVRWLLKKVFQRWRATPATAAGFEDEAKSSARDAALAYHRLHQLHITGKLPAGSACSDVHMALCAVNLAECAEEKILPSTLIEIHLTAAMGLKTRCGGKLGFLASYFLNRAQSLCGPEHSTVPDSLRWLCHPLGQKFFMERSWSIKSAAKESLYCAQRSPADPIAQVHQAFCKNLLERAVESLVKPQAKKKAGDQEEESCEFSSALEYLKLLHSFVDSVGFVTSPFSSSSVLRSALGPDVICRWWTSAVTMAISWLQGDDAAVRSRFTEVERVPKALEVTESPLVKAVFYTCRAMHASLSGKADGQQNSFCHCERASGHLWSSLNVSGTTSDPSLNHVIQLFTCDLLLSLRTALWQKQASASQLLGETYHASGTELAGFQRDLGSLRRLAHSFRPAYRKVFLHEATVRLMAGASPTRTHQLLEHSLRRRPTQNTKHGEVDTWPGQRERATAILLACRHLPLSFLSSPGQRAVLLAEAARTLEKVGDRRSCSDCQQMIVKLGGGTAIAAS
As to the kind of experiment: co-IP; endogenous proteins; differentiated oligodendrocytes cross-linked with 1% formaldehyde, lysed in NP-40 buffer (50 mM Tris-HCl pH 7.4, 150 mM NaCl, 5 mM EDTA, 0.05% NP-40), sonicated; anti-Qki-5 or anti-Srebp2 antibody overnight at 4°C, protein G magnetic beads; immunoblot; normal rabbit IgG as control.

For assay [2], the target named is T3, Qki-5 (mouse (endogenous in oligodendrocytes differentiated from mouse NSCs)) (UniProt Q9QYS9).
T3 sequence: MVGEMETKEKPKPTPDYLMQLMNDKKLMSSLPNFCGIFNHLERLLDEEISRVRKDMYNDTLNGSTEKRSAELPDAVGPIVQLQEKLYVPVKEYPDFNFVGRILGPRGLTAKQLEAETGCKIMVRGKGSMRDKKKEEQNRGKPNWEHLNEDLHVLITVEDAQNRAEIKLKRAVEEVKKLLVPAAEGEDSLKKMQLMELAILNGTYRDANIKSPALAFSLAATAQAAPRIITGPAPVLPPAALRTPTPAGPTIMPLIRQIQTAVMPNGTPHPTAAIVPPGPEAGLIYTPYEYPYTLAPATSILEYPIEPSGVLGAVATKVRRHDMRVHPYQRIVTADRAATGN
The assay is described as above.

Results are given in words; binding and its absence hold for the method and conditions named. Binding seen in cells or lysates may run through a third protein. Some entries that bind do so weakly or less than the wild type. For part of these data: Tags and fused reporters may be left off the sequences shown.

B1: Qki-5 (protein, UniProt Q9QYS9-1 1-341)
chain: MVGEMETKEKPKPTPDYLMQLMNDKKLMSSLPNFCGIFNHLERLLDEEISRVRKDMYNDTLNGSTEKRSAELPDAVGPIVQLQEKLYVPVKEYPDFNFVGRILGPRGLTAKQLEAETGCKIMVRGKGSMRDKKKEEQNRGKPNWEHLNEDLHVLITVEDAQNRAEIKLKRAVEEVKKLLVPAAEGEDSLKKMQLMELAILNGTYRDANIKSPALAFSLAATAQAAPRIITGPAPVLPPAALRTPTPAGPTIMPLIRQIQTAVMPNGTPHPTAAIVPPGPEAGLIYTPYEYPYTLAPATSILEYPIEPSGVLGAVATKVRRHDMRVHPYQRIVTADRAATGN
Consider B1, for which the binding entry (in the assay with 3X Flag-Srebp2; in assay [1]) was “binds” each time.

B2: Srebp2 (sterol regulatory element-binding protein 2) (protein, UniProt Q3U1N2 1-1130)
chain: MDESSELGVLETMETLTELGDELTLGDIDEMLQFVSNQVGEFPDLFSEQLCSSFPGGGSNGGSGNNSSGRGNNGGATDPAVQRSFSQVPLSTFSPSAASPQAPALQVKVSPTPPRATPVLQPRPQPQPQPPAQLQQQTVMITPTFSTAPQTRIIQQPLIYQNAATSFQVLQPQVQSLVTSPQVQPVTIQQQVQTVQAQRVLTQTANGTLQTLAPATVQTVAAPQVQQVPVLVQPQIIKTDSLVLTTLKTDGSPVMAAVQNPALTALTAPIQTAALQVPTLVGSNGTILTTMPVMMGQEKVPIKQVPGGVKQLDPPKEGERRTTHNIIEKRYRSSINDKIIELKDLVMGTDAKMHKSGVLRKAIDYIKYLQQVNHKLRQENMVLKLANQKNKLLKGIDLGSLVDSDVDLKIDDFNQNVLLMSPPASDSGSQAGFSPYSIDSEPGSPLLDDAKVKDEPDSPPVALGMVDRSRILLCVLTFLGLSFNPLTSLLQWGGAHNTDQHPYSGSGRSVLSLESGAGGWFDWMVPTLLLWLVNGVIVLSVFVKLLVHGEPVIRPHSRPSVTFWRHRKQADLDLAKGDFAAAAANLQTCLSVLGRALPTSRLDLACSLSWNVIRYSLQKLRLVRWLLKKVFQRWRATPATAAGFEDEAKSSARDAALAYHRLHQLHITGKLPAGSACSDVHMALCAVNLAECAEEKILPSTLIEIHLTAAMGLKTRCGGKLGFLASYFLNRAQSLCGPEHSTVPDSLRWLCHPLGQKFFMERSWSIKSAAKESLYCAQRSPADPIAQVHQAFCKNLLERAVESLVKPQAKKKAGDQEEESCEFSSALEYLKLLHSFVDSVGFVTSPFSSSSVLRSALGPDVICRWWTSAVTMAISWLQGDDAAVRSRFTEVERVPKALEVTESPLVKAVFYTCRAMHASLSGKADGQQNSFCHCERASGHLWSSLNVSGTTSDPSLNHVIQLFTCDLLLSLRTALWQKQASASQLLGETYHASGTELAGFQRDLGSLRRLAHSFRPAYRKVFLHEATVRLMAGASPTRTHQLLEHSLRRRPTQNTKHGEVDTWPGQRERATAILLACRHLPLSFLSSPGQRAVLLAEAARTLEKVGDRRSCSDCQQMIVKLGGGTAIAAS
In the case of B2, the binding entry in assay [2] is listed as “binds”.
